These are yes or no findings as the source states them, for the method shown. Binding seen in cells or lysates may run through a third protein. Some entries that bind do so weakly or less than the wild type.
Target: Myc-IRE1α (human) (UniProt O75460)
Test: co-IP; cells co-transfected with Myc-IRE1α and vector or Flag-Listerin constructs (HEK293T in the text, HEK293-TLR4 in the legend); lysed in IP buffer (1% Nonidet P-40, 50 mM Tris-HCl pH 7.4, 50 mM EDTA, 150 mM NaCl); antibody 1 h and protein A/G plus-agarose overnight; immunoblot

By UniProt entry, the sequences of proteins in these tests, tags left out. Residues count along the entry.
UniProt O75460, residues 19-977: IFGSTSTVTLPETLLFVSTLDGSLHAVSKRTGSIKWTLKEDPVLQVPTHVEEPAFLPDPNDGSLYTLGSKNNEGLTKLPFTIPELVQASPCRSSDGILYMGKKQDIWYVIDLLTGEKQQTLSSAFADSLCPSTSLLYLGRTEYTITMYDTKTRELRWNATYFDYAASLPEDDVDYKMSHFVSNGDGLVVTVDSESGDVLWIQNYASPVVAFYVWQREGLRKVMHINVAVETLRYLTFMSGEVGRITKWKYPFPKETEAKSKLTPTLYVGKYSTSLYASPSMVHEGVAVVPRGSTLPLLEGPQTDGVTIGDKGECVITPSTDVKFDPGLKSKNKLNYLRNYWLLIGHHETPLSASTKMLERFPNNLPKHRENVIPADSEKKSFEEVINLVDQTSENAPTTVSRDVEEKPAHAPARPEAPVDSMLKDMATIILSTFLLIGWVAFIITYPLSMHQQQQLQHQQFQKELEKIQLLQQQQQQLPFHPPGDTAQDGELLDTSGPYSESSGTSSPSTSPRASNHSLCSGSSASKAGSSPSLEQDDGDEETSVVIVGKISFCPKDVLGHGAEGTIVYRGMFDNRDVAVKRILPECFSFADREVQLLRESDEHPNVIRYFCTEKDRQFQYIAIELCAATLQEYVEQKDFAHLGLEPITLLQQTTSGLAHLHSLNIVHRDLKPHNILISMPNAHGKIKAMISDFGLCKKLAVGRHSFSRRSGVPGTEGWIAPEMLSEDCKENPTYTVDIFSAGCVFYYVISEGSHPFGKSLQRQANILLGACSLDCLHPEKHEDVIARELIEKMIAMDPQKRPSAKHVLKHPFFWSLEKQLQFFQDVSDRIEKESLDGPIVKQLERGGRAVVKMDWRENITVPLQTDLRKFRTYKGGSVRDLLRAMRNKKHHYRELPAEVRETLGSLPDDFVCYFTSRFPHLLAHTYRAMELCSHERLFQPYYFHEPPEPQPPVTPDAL
UniProt O94822: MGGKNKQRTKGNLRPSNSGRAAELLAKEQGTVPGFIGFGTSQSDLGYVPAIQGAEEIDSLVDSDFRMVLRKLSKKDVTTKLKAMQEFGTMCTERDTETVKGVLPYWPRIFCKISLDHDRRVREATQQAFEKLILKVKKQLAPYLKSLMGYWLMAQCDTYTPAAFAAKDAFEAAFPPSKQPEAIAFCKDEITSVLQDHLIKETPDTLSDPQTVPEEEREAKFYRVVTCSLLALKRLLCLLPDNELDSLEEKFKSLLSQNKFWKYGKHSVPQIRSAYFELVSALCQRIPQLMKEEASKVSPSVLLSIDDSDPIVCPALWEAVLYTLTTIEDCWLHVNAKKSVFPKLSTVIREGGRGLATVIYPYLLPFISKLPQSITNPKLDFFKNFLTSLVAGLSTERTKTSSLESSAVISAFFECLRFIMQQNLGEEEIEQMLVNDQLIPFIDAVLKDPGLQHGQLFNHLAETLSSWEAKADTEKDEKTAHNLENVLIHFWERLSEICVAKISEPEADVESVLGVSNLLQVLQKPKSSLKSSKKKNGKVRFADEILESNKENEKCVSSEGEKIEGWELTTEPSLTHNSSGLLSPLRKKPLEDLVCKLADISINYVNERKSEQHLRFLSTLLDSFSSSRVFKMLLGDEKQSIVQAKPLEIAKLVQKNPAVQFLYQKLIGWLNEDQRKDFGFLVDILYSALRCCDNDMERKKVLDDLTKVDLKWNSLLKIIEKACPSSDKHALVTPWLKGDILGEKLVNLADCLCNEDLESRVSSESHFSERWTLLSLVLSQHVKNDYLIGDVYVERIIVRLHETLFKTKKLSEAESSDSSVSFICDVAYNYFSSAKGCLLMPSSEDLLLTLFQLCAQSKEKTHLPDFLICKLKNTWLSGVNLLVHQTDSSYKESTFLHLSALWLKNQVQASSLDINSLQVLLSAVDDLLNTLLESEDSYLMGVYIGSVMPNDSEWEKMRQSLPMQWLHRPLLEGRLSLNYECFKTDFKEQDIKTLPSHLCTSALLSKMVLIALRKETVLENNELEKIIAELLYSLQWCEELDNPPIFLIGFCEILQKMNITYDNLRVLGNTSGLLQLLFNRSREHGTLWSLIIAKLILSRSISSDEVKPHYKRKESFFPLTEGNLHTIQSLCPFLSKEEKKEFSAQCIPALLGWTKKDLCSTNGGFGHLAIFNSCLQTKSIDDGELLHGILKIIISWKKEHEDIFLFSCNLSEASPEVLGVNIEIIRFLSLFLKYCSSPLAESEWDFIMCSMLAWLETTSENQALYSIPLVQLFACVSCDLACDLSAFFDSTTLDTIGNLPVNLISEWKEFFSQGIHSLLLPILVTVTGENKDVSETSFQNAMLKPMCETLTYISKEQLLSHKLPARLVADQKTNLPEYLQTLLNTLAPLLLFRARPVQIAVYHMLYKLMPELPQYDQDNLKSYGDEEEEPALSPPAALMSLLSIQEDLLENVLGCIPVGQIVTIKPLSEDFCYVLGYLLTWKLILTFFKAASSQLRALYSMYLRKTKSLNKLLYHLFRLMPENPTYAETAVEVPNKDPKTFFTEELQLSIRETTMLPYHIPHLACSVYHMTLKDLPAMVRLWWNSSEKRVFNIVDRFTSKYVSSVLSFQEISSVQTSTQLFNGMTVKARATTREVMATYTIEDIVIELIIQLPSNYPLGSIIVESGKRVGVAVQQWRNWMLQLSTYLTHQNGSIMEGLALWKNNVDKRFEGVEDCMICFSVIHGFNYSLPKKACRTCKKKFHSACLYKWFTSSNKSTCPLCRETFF

binding: binds
Substance: Flag-Listerin (from UniProt O94822 1-1766)

— PMC12407295
